Source: PubChem BioAssay AID504444 (National Center for Advancing Translational Sciences (NCATS), 2011)
The campaign covered roughly 360,000 compounds. About 7,500 (2.1%) were called active. The shares of active, inactive and inconclusive entries below differ from those in the screen. Calls come from the whole dose curve; as a rule, active = well fitted inhibition curve with a large enough effect; inconclusive = small, poorly fitted or top-dose-only effect, or effect the other way; inactive = flat fitted curve, though single readings scatter. A potency beside an inconclusive call is a rough fit, not a confirmed value.
Potency is the fitted concentration of half-maximal effect.

Assay: Nrf2 qHTS screen for inhibitors; note: nearly all actives have a fitted effect of over 60% in size
Conditions: A549 ARE-Fluc reporter, luciferase luminescence, 18-24 h; series mostly up to 46 µM
Outline: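 Nrf2 function is reported as luminescence of an ARE-controlled luciferase in A549 cells. Compounds were tested at several concentrations, and a CellTiter-Fluor read on the same wells flagged cytotoxicity.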
In the case of Cc1cccc(OCC(=O)Nc2ccc(N3CCN(S(C)(=O)=O)CC3)cc2)c1C, the Potency is reported as inconclusive: 8.2 µM [falling, partial curve, poor fit]. With O=C(NCc1nc(-c2ccccc2)no1)c1cccs1 the Potency was inconclusive: 3.66 µM [activator, single point]. In the case of O=C1c2ccccc2NC2(CCCCC2)N1N=C1CCCCC1, the Potency is reported as “inactive”. For O=S(=O)(Cc1ccccc1)N1CCC(c2nc(-c3cccs3)no2)CC1, the Potency was inconclusive: 29.1 µM [falling, single point]. In the case of Cc1nc2c(C#N)c(-c3ccc(Cl)cc3)ccn2n1, the Potency is reported as “inactive”. With Cc1cc(NC(=O)C(Cl)Cl)cc2c1OCO2 the Potency was inconclusive: 1.64 µM [activator, partial curve]. With COc1ccc(C(C(=O)NC2CCCC2)N(C(=O)c2ccoc2C)c2cc(C)cc(C)c2)cc1 (stereo unspecified) the Potency was inconclusive: 29.1 µM [falling, single point]. With O=C(NCCc1ccccc1)c1cccc(NC(=O)C2CC2)c1 the Potency was inconclusive: 18.4 µM [activator, partial curve]. In the case of Cc1nc2ccc(NC(=O)c3ccccc3)cc2s1, the Potency is reported as inconclusive: 29.1 µM [activator, single point]. In the case of CCc1nc(SCC(=O)NCC2CCCO2)c2oc3ccccc3c2n1 (stereo unspecified), the Potency is reported as inconclusive: 14.6 µM [falling, single point]. With CCn1c(CSCc2ccc(F)cc2)nnc1SCC(=O)N1CCN(c2ccccc2)CC1 the Potency was inconclusive: 29.1 µM [falling, single point]. For C=CCN(C(=O)C1=NN(C2CCS(=O)(=O)C2)C(=O)CC1)c1nc(-c2ccc([N+](=O)[O-])cc2)cs1 (stereo unspecified), the Potency was inconclusive: 5.17 µM [activator, partial curve]. In the case of CCCn1c(SCC(=O)N2CCc3ccccc32)n[nH]c1=O, the Potency is reported as inconclusive: 4.11 µM [falling, partial curve, poor fit]. For Cc1ccccc1-c1noc(CSc2nnc(Cc3ccccc3)n2-c2ccc(F)cc2)n1, the Potency was inconclusive: 29.1 µM [falling, single point]. For Cc1occc1C(=O)O/N=C(\N)c1ccc(Cl)cc1, the Potency was inconclusive: 29.1 µM [activator, single point]. In the case of COc1ccc(-c2noc(CSc3nnc(-c4ccncc4)n3-c3ccccc3)n2)cc1, the Potency is reported as inconclusive: 25.9 µM [falling, partial curve, poor fit]. For CCC(C)n1c(=N)c(S(=O)(=O)c2ccc(C)cc2)cc2c(=O)n3cc(C)ccc3nc21 (stereo unspecified), the Potency was “inactive”. In the case of CC(C)(C)c1ccc(/C=N/NC(=O)C2CCCC2)cc1, the Potency is reported as inconclusive: 8.2 µM [activator, partial curve]. With N#Cc1c2c(c(-n3cnc4ccccc43)n3c1nc1ccccc13)CCC2 the Potency was inconclusive: 29.1 µM [activator, single point]. For O=C(Nc1cccc(-n2cccn2)c1)C1CCCN(Cc2cccc(F)c2F)C1 (stereo unspecified), the Potency was inconclusive: 16.4 µM [falling, single point]. For Cn1/c(=N/N=C/c2ccc(N3CCOCC3)cc2)sc2ccccc21, the Potency was inconclusive: 14.6 µM [activator, partial curve]. For CCN(CC)S(=O)(=O)c1ccc(NC(=O)COc2c(OC)cccc2OC)cc1, the Potency was inconclusive: 16.4 µM [falling, single point]. For O=C(Nc1ccc2c3c(cccc13)CC2)c1ccco1, the Potency was inconclusive: 29.1 µM [activator, single point]. In the case of COC(=O)c1ccccc1NC(=O)Cn1c(=O)n(CCCCC(=O)NCc2ccc3c(c2)OCO3)c(=O)c2ccccc21, the Potency is reported as “inactive”. With COc1cc(OC)c(NC(=O)c2c(C)oc3ncnc(N4CCCCC4)c23)cc1Cl the Potency was inconclusive: 29.1 µM [activator, single point]. With CC(C)n1c(NCCc2ccccc2)nc2c1c(=O)n(C)c(=O)n2C the Potency was active: 13 µM. With CCCNC(=O)COc1ccc(S(=O)(=O)Nc2ccc(C)cc2)cc1 the Potency was inconclusive: 29.1 µM [falling, single point]. For Cc1ccccc1SCC(=O)Nc1cc(C(F)(F)F)ccc1N1CCOCC1, the Potency was inconclusive: 16.4 µM [falling, single point]. With O=C1CCC2=C1C(c1ccccc1Cl)N=C(Nc1nc3ccccc3o1)N2 (stereo unspecified) the Potency was “inactive”. With COc1cc(SC)ccc1C(=O)OCC(=O)NCC(C)C the Potency was inconclusive: 20.6 µM [activator, partial curve, poor fit]. In the case of CCOC(=O)c1cc(C)n(Cc2ccc(OCC)c(OC)c2)c1C, the Potency is reported as inconclusive: 29.1 µM [falling, single point]. For CCNc1sc(S(C)(=O)=O)nc1S(=O)(=O)c1ccc(C)cc1, the Potency was inconclusive: 14.6 µM [activator, partial curve, poor fit]. With COc1ccc2cc(CN(CC3CCCO3)C(=O)Nc3ccccc3OC)c(=O)[nH]c2c1 (stereo unspecified) the Potency was inconclusive: 16.4 µM [activator, single point]. With O=C1c2ccccc2C(=O)C1(CO)c1ccc(OC(F)F)cc1 the Potency was inconclusive: 0.731 µM [activator, partial curve, poor fit]. With Cc1cccc(NC(=O)Nc2cccc(C#N)c2)n1 the Potency was “inactive”. In the case of CN1C(=O)/C(=C/c2ccc(OC(=O)c3ccco3)cc2)SC1=S, the Potency is reported as “inactive”. With CCN(CC)S(=O)(=O)c1ccc(C(=O)Nc2nnc(COC)o2)cc1 the Potency was “inactive”. In the case of CCOc1ccc(OCCn2c(=S)[nH]c3ccccc32)cc1, the Potency is reported as inconclusive: 25.9 µM [falling, single point]. With O=C(c1ccccc1)N1CCN(c2nc3ccc([N+](=O)[O-])cc3s2)CC1 the Potency was inconclusive: 18.4 µM [falling, single point]. With CC#CCCCC(=O)Nc1ccccc1C(=O)O the Potency was inconclusive: 2.31 µM [activator, full curve]. With Cc1ccc(NC(=O)CSC2=C(C#N)C(c3ccco3)C3=C(CC(C)(C)CC3=O)N2)cc1 (stereo unspecified) the Potency was inconclusive: 32.6 µM [falling, single point]. For COc1ccc(CNC(=O)c2cccc(NC3=NC4CS(=O)(=O)CC4S3)c2)cc1 (stereo unspecified), the Potency was inconclusive: 1.84 µM [falling, partial curve, poor fit]. For O=C(O)c1cccc(NC(=S)N/N=C/c2ccccc2OCc2cccc(Br)c2)c1, the Potency was “inactive”. For COc1ccc(-c2nc(N3CCN(S(=O)(=O)c4ccc(C)cc4)CC3)c3ccccc3n2)cc1, the Potency was inconclusive: 23.1 µM [activator, single point]. For Cc1cc(C(=O)N2CCN(c3cc(Cl)ccc3C)CC2)c2c(C)nn(-c3ccccc3)c2n1, the Potency was “inactive”. With Cc1cccc(Nc2cc(C)nc3ccccc23)c1 the Potency was inconclusive: 29.1 µM [falling, single point]. In the case of CCOc1cc(CNCc2ccncc2)cc(Br)c1OCc1ccc(F)cc1, the Potency is reported as inconclusive: 20.6 µM [falling, single point]. In the case of COc1ccc(C(=O)n2ncc(C#N)c2N)cc1, the Potency is reported as inconclusive: 16.4 µM [falling, single point]. With COCCn1c(N)c(C(=O)NCC2CCCO2)c2nc3ccccc3nc21 (stereo unspecified) the Potency was inconclusive: 6.51 µM [falling, partial curve, poor fit]. In the case of c1ccc(CCc2cn(C[C@H]3CC[C@@H]([C@@H]4CC[C@H](Cn5cc(CCc6ccccc6)nn5)O4)O3)nn2)cc1, the Potency is reported as “inactive”. In the case of Cc1ccc(C(=O)c2cn(Cc3c(F)cccc3Cl)c3nc(C)ccc3c2=O)cc1, the Potency is reported as “inactive”. With Cc1ccc(N2C(=O)C3CCCN3C2=S)cc1C (stereo unspecified) the Potency was inconclusive: 8.2 µM [activator, partial curve, poor fit]. With Nn1c(SCC(=O)Nc2cccc(F)c2)nnc1C1CCCCC1 the Potency was “inactive”. In the case of O=C(/C=C/c1ccc(S(=O)(=O)N2CCOCC2)cc1)N(CCO)Cc1ccccc1, the Potency is reported as inconclusive: 29.1 µM [falling, single point]. For CCOc1ccc(OC(=O)NC(c2ccccc2)C(Cl)(Cl)Cl)cc1 (stereo unspecified), the Potency was inconclusive: 18.4 µM [falling, partial curve]. For c1ccc(-c2c(-c3ccccc3)n(Cc3ccco3)c3ncnc(NCCCn4ccnc4)c23)cc1, the Potency was inconclusive: 16.4 µM [falling, partial curve, poor fit]. For O=C(NC1CCCCCC1)c1cccc(N2CCCC2=O)c1, the Potency was inconclusive: 2.91 µM [activator, partial curve]. For CCCOc1ccc(C(=O)Nn2c(C)nc3ccccc3c2=O)cc1, the Potency was inconclusive: 9.2 µM [falling, partial curve]. For COc1ccc(NC(=O)CCn2c(=S)[nH]c3ccccc3c2=O)cc1, the Potency was inconclusive: 14.6 µM [falling, single point]. In the case of C=CCc1ccc(OCCCN2CCCC(C)C2)c(OC)c1 (stereo unspecified), the Potency is reported as inconclusive: 29.1 µM [activator, single point]. In the case of COc1ccccc1NC(=O)CN1CCOCC1, the Potency is reported as “inactive”. With Cc1ccnc(NC(=O)c2cccc([N+](=O)[O-])c2C)c1 the Potency was inconclusive: 23.1 µM [activator, single point]. With CCC1CCCCN1S(=O)(=O)c1ccc(NC(=O)CSc2ncccc2C(=O)O)cc1 (stereo unspecified) the Potency was inconclusive: 0.0517 µM [falling, full curve, poor fit]. In the case of CCOc1ccc(C(=O)NCCn2cc(SCC(=O)Nc3cc(C)on3)c3ccccc32)cc1, the Potency is reported as inconclusive: 32.6 µM [falling, single point]. In the case of O=C(CNc1cccc([N+](=O)[O-])c1)NC(=O)NC1CCCCC1, the Potency is reported as inconclusive: 16.4 µM [falling, partial curve, poor fit]. With O=C(OCC#CCSc1nc2ccccc2s1)c1ccco1 the Potency was inconclusive: 20.6 µM [activator, single point].
